# These are yes or no findings as the source states them, for the method shown. Binding seen in cells or lysates may run through a third protein. Some entries that bind do so weakly or less than the wild type.
# Protein sequences, listed by entry. Tags and fused reporters are not part of them.
# UniProt Q921F2: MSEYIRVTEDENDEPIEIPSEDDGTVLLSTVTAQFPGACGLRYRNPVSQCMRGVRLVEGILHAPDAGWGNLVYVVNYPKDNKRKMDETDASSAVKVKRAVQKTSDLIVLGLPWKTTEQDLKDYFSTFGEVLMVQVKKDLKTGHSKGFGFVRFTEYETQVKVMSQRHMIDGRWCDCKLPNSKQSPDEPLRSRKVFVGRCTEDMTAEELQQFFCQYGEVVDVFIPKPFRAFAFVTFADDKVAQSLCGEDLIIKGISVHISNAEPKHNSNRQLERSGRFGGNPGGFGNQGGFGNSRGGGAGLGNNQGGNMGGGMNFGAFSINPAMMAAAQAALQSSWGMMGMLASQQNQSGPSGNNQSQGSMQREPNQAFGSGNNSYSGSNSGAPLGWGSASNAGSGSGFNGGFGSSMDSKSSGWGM
# UniProt P28659: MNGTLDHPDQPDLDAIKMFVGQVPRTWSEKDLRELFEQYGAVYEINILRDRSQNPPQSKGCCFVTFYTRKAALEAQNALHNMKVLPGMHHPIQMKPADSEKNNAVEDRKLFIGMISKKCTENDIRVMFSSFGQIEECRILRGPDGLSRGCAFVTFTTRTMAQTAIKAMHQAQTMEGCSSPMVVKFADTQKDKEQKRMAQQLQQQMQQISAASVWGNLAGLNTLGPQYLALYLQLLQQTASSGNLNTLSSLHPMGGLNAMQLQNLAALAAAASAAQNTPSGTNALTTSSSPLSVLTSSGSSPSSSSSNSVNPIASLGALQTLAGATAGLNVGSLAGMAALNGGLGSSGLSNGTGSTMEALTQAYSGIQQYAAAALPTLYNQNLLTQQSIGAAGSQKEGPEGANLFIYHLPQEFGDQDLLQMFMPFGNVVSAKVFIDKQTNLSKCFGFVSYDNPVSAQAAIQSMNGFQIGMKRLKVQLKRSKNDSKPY
# Molecular target: TAR-DNA Binding Protein (TDP-43) (mouse (endogenous in female ESCs)) (UniProt Q921F2)
# Test: co-IP
substance,measurement,value
CUG-Binding Protein 1 (CELF1) (from UniProt P28659 1-486),binding,binds

# Reference: publication doi:10.1101/2020.03.09.979369
